Consider two substances from publication PMC6722097.

Chains of the proteins cited; added tags and fusions are not shown.
UniProt P35570: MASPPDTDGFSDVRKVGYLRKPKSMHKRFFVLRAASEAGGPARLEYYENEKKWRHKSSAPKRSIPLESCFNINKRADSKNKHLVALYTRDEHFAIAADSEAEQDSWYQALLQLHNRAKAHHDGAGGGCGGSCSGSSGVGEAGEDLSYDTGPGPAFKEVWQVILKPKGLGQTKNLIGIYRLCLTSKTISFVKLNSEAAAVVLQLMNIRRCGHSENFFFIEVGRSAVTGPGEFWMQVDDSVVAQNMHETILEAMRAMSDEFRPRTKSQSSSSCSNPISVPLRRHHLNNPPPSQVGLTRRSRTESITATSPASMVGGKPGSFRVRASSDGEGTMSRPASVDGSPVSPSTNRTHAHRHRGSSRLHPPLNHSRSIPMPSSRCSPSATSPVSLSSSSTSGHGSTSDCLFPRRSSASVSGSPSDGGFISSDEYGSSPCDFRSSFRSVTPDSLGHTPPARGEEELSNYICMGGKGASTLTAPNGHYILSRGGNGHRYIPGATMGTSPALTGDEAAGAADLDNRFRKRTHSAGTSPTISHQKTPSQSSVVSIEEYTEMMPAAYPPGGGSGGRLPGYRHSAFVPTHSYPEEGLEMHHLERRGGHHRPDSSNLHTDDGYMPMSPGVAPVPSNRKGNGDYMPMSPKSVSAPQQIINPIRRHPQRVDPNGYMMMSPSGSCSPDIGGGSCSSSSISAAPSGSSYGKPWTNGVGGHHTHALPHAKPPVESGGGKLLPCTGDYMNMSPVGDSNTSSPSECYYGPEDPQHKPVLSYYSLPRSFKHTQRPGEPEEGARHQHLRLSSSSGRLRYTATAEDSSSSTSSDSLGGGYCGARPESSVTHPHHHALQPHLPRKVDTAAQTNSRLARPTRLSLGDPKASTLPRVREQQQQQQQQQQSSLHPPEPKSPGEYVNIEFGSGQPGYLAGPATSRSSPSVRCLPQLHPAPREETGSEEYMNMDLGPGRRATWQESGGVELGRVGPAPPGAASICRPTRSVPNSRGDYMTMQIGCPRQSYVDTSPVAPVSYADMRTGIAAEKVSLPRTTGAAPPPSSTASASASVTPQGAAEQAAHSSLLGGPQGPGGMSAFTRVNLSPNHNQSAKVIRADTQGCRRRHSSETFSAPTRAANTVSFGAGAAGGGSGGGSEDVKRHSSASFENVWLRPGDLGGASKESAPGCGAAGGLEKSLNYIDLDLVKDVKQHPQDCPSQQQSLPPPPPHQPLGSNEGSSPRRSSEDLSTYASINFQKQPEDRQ

In assay [1] the target is phosphorylated PDGFRβ, endogenous in normal human diploid fibroblast clone cells (human (endogenous in NHDF)) (UniProt P09619). In words: co-IP; NHDF clone cells (NHDFWT-1, NHDFWT-2, NHDFM-1) serum-starved, treated 5 min with insulin (100 ng/ml) or 10 min with PDGF (8 ng/ml), washed, chased 0, 1, 2 or 4 h, lysed; immunoprecipitation and Western blot (antibodies not told in the text shown; Supplementary Fig. 7). (In western blotting, separated proteins are transferred to a membrane and probed.)

The target of assay [2] is phosphorylated IRS-1, endogenous in PC12m3 clone cells (rat (endogenous in PC12m3)) (UniProt P35570). In words: co-IP; serum-starved PC12m3 clone cells (PC12m3p85βWT2, M1, M2) treated with insulin (100 ng/ml), ligand removed, chased 1 or 2 h; Nonidet P-40 lysates precipitated with an anti-IRS-1 antibody on G-Sepharose beads; blot with a p85α antibody.

Results are given in words; binding and its absence hold for the method and conditions named. In cells and extracts the contact can be indirect. Some entries that bind do so weakly or less than the wild type.

Turning to “p85α protein, endogenous in normal human diploid fibroblast clone cells (from UniProt P27986 1-724)”, the binding result in assay [1] is “binds”.

“p85α regulatory subunit of PI3K, endogenous in PC12m3 clone cells (from UniProt Q63787-1 1-724)”: the binding entry in assay [2] was “binds”.
